PubChem BioAssay AID1259254, NCATS, 2017

- Aim: 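Gene knock-downs that lead to re-replication, shown by excess G2 DNA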 (primary screen)
- Cell system: human HCT116 colorectal cancer cells
- Reagents: single siRNA against human genes
- Duration: 3 days
- Measurement: 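Nuclei stained with Hoechst and imaged; cell-cycle phase assigned by DNA content; G2 share scaled per plate, non-targeting siRNA 0%, GMNN siRNA 100%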
- Scale: G2 robust z-score and G2 cells, % of GMNN control: higher = more G2 cells, more excess DNA replication; raw share of cells in G2: higher = larger share of cells with G2 DNA content
- Active means: 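An siRNA counts as active if its G2 robust z-score lies at least 5 MADs above the screen median; here such calls match roughly 38% of GMNN control or more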
Here is a random part of about 59,000 reagents. About 1,550 of them (2.6%) were called active. 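G2 share is only a proxy for re-replication; each gene was hit by three separate siRNAs, and active genes were retested.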 Raw values are not corrected between plates. Reagents against one gene are numbered here. Not given: the amount of reagent.

| target gene | reagent no. | G2 robust z-score | G2 cells, % of GMNN control | raw share of cells in G2 (%) | activity call |
| --- | --- | --- | --- | --- | --- |
| LINC01915 | 1 | 0.507 | 6.53 | 6.66 | inactive |
| LINC01915 | 2 | 0.458 | 6.19 | 5.31 | inactive |
| LINC01915 | 3 | -0.357 | 0.455 | 3.34 | inactive |
| ANAPC1P2 | 1 | 0.372 | 5.59 | 5.21 | inactive |
| ANAPC1P2 | 2 | 0.52 | 6.63 | 5.28 | inactive |
| ANAPC1P2 | 3 | -0.611 | -1.33 | 3.16 | inactive |
| MT1IP | 1 | 2.83 | 22.9 | 9.82 | inactive |
| MT1IP | 2 | 0.117 | 3.79 | 5.08 | inactive |
| MT1IP | 3 | -0.374 | 0.333 | 3.39 | inactive |
| RELB | 1 | 1.27 | 11.9 | 8.18 | inactive |
| RELB | 2 | 0.474 | 6.3 | 7.8 | inactive |
| RELB | 3 | -0.572 | -1.06 | 2.72 | inactive |
| SPATA31C1 | 1 | 0.142 | 3.97 | 5.15 | inactive |
| SPATA31C1 | 2 | 0.269 | 4.86 | 5.26 | inactive |
| SPATA31C1 | 3 | -0.228 | 1.36 | 3.58 | inactive |
| TAFAZZIN | 1 | -1.02 | -4.19 | 3.54 | inactive |
| TAFAZZIN | 2 | 1.04 | 10.3 | 7.56 | inactive |
| TAFAZZIN | 3 | -0.803 | -2.68 | 3.66 | inactive |
| ANK2 | 1 | -0.375 | 0.326 | 4.11 | inactive |
| ANK2 | 2 | -1.1 | -4.8 | 3.36 | inactive |
| ANK2 | 3 | 1.15 | 11 | 8.47 | inactive |
| FLJ32154 (retired record) | 1 | -0.588 | -1.17 | 3.44 | inactive |
| FLJ32154 (retired record) | 2 | -0.525 | -0.728 | 2.69 | inactive |
| FLJ32154 (retired record) | 3 | -0.62 | -1.4 | 2.58 | inactive |
| XRRA1 | 1 | -0.803 | -2.68 | 2.93 | inactive |
| XRRA1 | 2 | 4.41 | 34 | 13.4 | inactive |
| XRRA1 | 3 | -0.571 | -1.05 | 2.7 | inactive |
| FLJ46284 | 1 | -0.86 | -3.08 | 2.25 | inactive |
| FLJ46284 | 2 | 2.11 | 17.8 | 9.18 | inactive |
| FLJ46284 | 3 | 0.579 | 7.04 | 6.34 | inactive |
| PPM1N | 1 | -0.217 | 1.44 | 3.57 | inactive |
| PPM1N | 2 | -0.403 | 0.131 | 3.87 | inactive |
| PPM1N | 3 | 1.05 | 10.4 | 6.11 | inactive |
| RPL10P17 | 1 | 2.07 | 17.5 | 10.5 | inactive |
| RPL10P17 | 2 | -0.63 | -1.46 | 4.18 | inactive |
| RPL10P17 | 3 | 0.841 | 8.88 | 7.04 | inactive |
| GTF2F2P2 | 1 | 4.37 | 33.7 | 16.8 | inactive |
| GTF2F2P2 | 2 | -0.817 | -2.78 | 2.42 | inactive |
| GTF2F2P2 | 3 | 3.72 | 29.2 | 14.5 | inactive |
| FMO5 | 1 | 0.321 | 5.23 | 5.52 | inactive |
| FMO5 | 2 | 1.85 | 16 | 11.3 | inactive |
| FMO5 | 3 | -0.863 | -3.1 | 4.11 | inactive |
| TPM1 | 1 | 2.22 | 18.6 | 13.5 | inactive |
| TPM1 | 2 | -0.0439 | 2.66 | 5.35 | inactive |
| TPM1 | 3 | 1.7 | 14.9 | 9.81 | inactive |

Already shown: 4 of the entries above.
| target gene | reagent no. | G2 robust z-score | G2 cells, % of GMNN control | raw share of cells in G2 (%) | activity call |
| --- | --- | --- | --- | --- | --- |
| MT1IP | 2 | 0.117 | 3.79 | 5.08 | inactive |
| MT1IP | 3 | -0.374 | 0.333 | 3.39 | inactive |
| RELB | 1 | 1.27 | 11.9 | 8.18 | inactive |
| RELB | 2 | 0.474 | 6.3 | 7.8 | inactive |

Next entries follow.
| target gene | reagent no. | G2 robust z-score | G2 cells, % of GMNN control | raw share of cells in G2 (%) | activity call |
| --- | --- | --- | --- | --- | --- |
| IMP3 | 1 | 3.83 | 29.9 | 19.6 | inactive |
| IMP3 | 2 | -0.365 | 0.402 | 4.58 | inactive |
| IMP3 | 3 | 0.742 | 8.19 | 7.75 | inactive |
| CYTIP | 1 | 1.06 | 10.4 | 10 | inactive |
| CYTIP | 2 | 0.699 | 7.88 | 7.23 | inactive |
| CYTIP | 3 | 0.04 | 3.25 | 4.59 | inactive |
| IL2RG | 1 | -0.0612 | 2.54 | 5.13 | inactive |
| IL2RG | 2 | 1.56 | 13.9 | 11 | inactive |
| IL2RG | 3 | -0.277 | 1.02 | 5.41 | inactive |
| MXD4 | 1 | 0.611 | 7.27 | 9.34 | inactive |
| MXD4 | 2 | 3.7 | 29 | 13.2 | inactive |
| MXD4 | 3 | -0.652 | -1.62 | 4.99 | inactive |
| CLSTN3 | 1 | 0.722 | 8.05 | 8.02 | inactive |
| CLSTN3 | 2 | -0.145 | 1.95 | 5.94 | inactive |
| CLSTN3 | 3 | -0.469 | -0.33 | 3.09 | inactive |
| CACNG8 | 1 | 9.47 | 69.6 | 30.6 | active |
| CACNG8 | 2 | -0.732 | -2.18 | 4.04 | inactive |
| CACNG8 | 3 | 0.097 | 3.65 | 5.8 | inactive |
| TREML2 | 1 | 2.01 | 17.1 | 11.5 | inactive |
| TREML2 | 2 | 0.0374 | 3.23 | 5.72 | inactive |
| TREML2 | 3 | -1.32 | -6.34 | 0.642 | inactive |
| SLC7A7 | 1 | -0.857 | -3.07 | 3.61 | inactive |
| SLC7A7 | 2 | -0.62 | -1.39 | 4.77 | inactive |
| SLC7A7 | 3 | 0.282 | 4.95 | 6.79 | inactive |
